Reference: patent publication US20240018153A1, “BENZENESULFONAMIDE DERIVATIVES AND USES THEREOF” (2692372 ONTARIO, INC., priority 2020, published 2024)
The structures given here were assigned with low confidence; some may be wrong.

Sequences of proteins named here, by UniProt entry; tags and fusion partners are left off. Residues count along the entry.
UniProt P00533, 25-1210 limits assumed: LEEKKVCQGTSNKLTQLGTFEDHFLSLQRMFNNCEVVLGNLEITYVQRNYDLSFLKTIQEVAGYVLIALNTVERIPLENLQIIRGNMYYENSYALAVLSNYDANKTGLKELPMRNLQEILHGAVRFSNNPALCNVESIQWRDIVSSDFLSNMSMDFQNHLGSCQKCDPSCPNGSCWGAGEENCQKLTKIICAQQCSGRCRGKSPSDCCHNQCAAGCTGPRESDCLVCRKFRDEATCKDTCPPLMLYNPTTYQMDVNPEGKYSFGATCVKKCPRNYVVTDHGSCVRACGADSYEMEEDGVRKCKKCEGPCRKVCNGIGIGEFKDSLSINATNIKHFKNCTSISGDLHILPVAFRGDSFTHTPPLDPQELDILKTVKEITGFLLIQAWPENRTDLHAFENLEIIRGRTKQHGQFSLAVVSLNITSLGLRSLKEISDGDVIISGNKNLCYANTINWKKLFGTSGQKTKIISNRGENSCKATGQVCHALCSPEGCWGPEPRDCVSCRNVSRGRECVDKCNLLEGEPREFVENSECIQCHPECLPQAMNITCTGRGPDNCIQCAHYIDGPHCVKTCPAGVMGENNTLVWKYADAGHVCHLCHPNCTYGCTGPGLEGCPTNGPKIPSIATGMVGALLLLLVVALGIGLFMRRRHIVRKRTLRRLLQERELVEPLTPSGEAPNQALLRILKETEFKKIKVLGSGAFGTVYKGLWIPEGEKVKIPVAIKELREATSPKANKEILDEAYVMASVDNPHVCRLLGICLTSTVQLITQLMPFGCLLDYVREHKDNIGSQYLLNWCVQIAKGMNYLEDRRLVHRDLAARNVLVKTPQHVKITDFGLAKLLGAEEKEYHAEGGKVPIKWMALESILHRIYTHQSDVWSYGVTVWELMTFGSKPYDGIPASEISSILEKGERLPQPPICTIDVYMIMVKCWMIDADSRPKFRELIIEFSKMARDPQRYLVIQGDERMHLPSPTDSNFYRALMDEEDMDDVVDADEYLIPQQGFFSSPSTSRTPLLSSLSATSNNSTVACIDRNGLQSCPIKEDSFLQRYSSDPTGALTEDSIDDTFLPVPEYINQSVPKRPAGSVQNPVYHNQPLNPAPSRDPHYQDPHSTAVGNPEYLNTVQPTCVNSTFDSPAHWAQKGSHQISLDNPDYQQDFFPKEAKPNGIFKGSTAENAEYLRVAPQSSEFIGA
UniProt P52333, 781-1124 limits assumed: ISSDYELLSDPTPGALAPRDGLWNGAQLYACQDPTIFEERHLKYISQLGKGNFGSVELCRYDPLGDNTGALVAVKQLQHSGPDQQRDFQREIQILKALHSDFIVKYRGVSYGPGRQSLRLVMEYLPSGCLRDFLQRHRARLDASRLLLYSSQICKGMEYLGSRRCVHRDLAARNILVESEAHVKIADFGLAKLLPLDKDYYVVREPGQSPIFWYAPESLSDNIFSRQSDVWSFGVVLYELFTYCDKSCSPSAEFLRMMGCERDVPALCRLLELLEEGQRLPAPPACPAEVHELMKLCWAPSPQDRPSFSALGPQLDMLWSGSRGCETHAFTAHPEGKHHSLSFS
UniProt Q06187, 2-659 limits assumed: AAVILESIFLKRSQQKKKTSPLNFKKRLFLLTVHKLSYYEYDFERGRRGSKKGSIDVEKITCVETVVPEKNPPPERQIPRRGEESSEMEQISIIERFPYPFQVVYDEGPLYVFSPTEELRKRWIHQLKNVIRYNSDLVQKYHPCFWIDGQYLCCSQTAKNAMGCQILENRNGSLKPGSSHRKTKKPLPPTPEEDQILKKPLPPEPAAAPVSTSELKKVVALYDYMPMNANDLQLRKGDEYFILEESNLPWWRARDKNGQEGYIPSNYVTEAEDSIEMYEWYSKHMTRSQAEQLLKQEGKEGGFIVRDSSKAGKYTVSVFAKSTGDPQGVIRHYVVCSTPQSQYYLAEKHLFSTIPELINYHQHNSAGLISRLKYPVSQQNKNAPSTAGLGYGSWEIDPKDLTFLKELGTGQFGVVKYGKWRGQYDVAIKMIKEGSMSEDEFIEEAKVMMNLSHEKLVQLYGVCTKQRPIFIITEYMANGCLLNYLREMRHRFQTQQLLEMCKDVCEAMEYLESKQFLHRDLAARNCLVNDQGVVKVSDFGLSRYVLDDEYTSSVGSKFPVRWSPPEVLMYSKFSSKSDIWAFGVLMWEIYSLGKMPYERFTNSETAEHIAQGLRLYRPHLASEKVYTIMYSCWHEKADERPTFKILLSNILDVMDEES
UniProt P22455, 22-802 limits assumed: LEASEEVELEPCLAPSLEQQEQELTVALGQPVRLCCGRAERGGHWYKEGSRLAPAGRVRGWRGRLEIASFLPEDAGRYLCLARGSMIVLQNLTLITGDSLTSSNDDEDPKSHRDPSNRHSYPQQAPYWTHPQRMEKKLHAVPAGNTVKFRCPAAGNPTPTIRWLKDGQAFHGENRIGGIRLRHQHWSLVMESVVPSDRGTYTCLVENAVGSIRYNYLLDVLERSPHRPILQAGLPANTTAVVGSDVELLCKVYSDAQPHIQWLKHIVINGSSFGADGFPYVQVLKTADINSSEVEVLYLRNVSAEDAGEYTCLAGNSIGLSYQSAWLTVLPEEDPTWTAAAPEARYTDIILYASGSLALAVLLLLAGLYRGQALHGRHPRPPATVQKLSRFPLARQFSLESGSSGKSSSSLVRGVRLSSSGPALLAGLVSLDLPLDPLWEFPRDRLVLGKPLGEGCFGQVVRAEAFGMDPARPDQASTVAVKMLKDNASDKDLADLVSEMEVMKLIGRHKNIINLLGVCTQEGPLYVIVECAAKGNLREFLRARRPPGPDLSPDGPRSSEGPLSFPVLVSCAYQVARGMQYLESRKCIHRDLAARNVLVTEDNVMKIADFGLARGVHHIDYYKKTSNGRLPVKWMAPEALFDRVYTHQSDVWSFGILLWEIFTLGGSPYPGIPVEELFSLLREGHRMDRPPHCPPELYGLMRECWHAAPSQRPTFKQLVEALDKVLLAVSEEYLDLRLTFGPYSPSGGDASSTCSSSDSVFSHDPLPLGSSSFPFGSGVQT
UniProt P51813, whole entry: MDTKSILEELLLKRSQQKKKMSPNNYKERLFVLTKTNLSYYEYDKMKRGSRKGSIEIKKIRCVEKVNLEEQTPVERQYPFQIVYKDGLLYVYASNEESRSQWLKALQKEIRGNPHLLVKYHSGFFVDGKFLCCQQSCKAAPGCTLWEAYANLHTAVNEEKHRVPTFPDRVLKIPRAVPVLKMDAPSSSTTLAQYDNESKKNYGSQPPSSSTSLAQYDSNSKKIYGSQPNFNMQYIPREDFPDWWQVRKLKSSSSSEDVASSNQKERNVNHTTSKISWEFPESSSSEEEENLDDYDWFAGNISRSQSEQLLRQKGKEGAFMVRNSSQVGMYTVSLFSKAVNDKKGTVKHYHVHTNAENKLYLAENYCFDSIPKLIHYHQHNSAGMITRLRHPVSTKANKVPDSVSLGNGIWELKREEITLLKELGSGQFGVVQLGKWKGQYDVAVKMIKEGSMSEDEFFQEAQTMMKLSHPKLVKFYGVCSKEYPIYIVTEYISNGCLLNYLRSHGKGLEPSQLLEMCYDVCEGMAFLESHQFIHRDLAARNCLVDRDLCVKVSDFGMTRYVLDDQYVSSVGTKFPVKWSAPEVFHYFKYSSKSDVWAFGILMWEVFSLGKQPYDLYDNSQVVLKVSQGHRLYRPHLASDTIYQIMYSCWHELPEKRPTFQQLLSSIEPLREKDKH

Columns and labels:
Type in all cases: biochemical
[1] = target: EGFR (Homo sapiens (Human), UniProt P00533); assay: HTRF KinEASE-TK kinase assay, EGFR; conditions: 3 h preincubation
[2] = target: JAK3 (Homo sapiens (Human), UniProt P52333); assay: HTRF KinEASE-TK kinase assay, JAK3
Description: (§1) Kinase activity was monitored using a HTRF® KinEASE-TK kit from Cisbio (62TK0PEC). […] JAK-3 was purchased from Promega. 0.0133 ng/ul JAK3 (0.21 nM) was preincubated in the absence or presence of inhibitor at room temperature for 3 hours. Reaction with substrate was then initiated by adding biotinylated substrate and ATP. […] The reaction was terminated by adding 31.25 nM SA-XL665 and 100 fold diluted europium labelled antibody (Eu-Ab), diluted in 1× detection buffer that contained EDTA. After 60 min of incubation, the fluorescence emission was measured at 620 nm and 665 nm. The ratio of Em 665 nm to Em 620 nm was proportional to the amount of substrate phosphorylated by the kinase. […] The top 13 compounds together with known inhibitor Ibrutinib were further selected for dose response analysis where compounds were tested from final concentrations ranging from 24 μM to 25 uM.

[3] = target: BTK (Homo sapiens (Human), UniProt Q06187); assay: HTRF KinEASE-TK kinase assay, BTK; conditions: 3 h preincubation
[4] = target: FGFR4 (Homo sapiens (Human), UniProt P22455); assay: HTRF KinEASE-TK kinase assay, FGFR4
Description: as §1, with “FGFR-4” for “JAK-3”, “0.333” for “0.0133”, “FGFR4 (5.12” for “JAK3 (0.21”

[5] = target: BMX (Homo sapiens (Human), UniProt P51813); assay: HTRF KinEASE-TK kinase assay, BMX; conditions: 3 h preincubation
Description: as §1, with “BMX” for “JAK-3”, “0.333” for “0.0133”, “BMX (3.03” for “JAK3 (0.21”, “The reaction” for “Reaction”, “Reaction” for “The reaction”

COCCOc1ccc(Nc2ncc(F)c(Nc3cccc(NS(=O)(=O)c4c(F)c(F)c(F)c(F)c4OCF)c3)n2)cc1
% EGFR Remaining activity vs DMSO (1 μM, 3 h) ([1]; 1 μM compound): A (>90%) | % EGFR Remaining activity vs DMSO (10 μM, 3 h) ([1]; 10 μM compound): A (>90%) | % JAK3 Remaining activity vs DMSO (1 μM, 3 h) ([2]; 1 μM): A (>90%) | % JAK3 Remaining activity vs DMSO (10 μM, 3 h) ([2]; 10 μM): C (<50%) | % BTK Remaining activity vs DMSO (1 μM, 3 h) ([3]; 1 μM compound): C (<50%) | % BTK Remaining activity vs DMSO (10 μM, 3 h) ([3]; 10 μM compound): C (<50%) | % FGFR4 Remaining activity vs DMSO (1 μM, 3 h) ([4]; 1 μM, 3 h): C (<50%) | % FGFR4 Remaining activity vs DMSO (10 μM, 3 h) ([4]; 10 μM, 3 h): C (<50%) | IC50 ([4]; read-out: FGFR4 IC50, dose response): < 1000 nM | BMX - 1 uM % remaining ([5]; 1 uM compound): C (<50%) | BMX - 10 uM % remaining ([5]; 10 uM compound): C (<50%)
